Results on two molecules are retold here after article PMC3140482.

Sequences of proteins named here, by UniProt entry; tags and fusion partners are left off.
UniProt Q07812: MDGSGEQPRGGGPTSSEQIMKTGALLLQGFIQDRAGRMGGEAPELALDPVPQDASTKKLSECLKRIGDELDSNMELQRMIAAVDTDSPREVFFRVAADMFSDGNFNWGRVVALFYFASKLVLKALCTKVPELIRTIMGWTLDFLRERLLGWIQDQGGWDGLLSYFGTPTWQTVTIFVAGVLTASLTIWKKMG

The target in the test is Bax (human (endogenous in SK-N-BE(2)-M17)) (UniProt Q07812). The test is described as follows: co-IP; M17 cell lysates (0.5% NP-40, 150 mM NaCl, 10 mM Tris-HCl pH 7.4) precipitated overnight at 4C with rabbit polyclonal anti-Bax or rabbit IgG and Protein G Sepharose; blotted with anti-14-3-3θ or anti-V5.

These are yes or no findings as the source states them, for the method shown. In cells and extracts the contact can be indirect. Some results given as binding are weak or reduced against the parent protein; the word gives no strength. Where a sequence is shown, tags or fusion partners need not be part of it.

B1: endogenous 14-3-3θ (protein, UniProt P27348 1-245)
chain: MEKTELIQKAKLAEQAERYDDMATCMKAVTEQGAELSNEERNLLSVAYKNVVGGRRSAWRVISSIEQKTDTSDKKLQLIKDYREKVESELRSICTTVLELLDKYLIANATNPESKVFYLKMKGDYFRYLAEVACGDDRKQTIDNSQGAYQEAFDISKKEMQPTHPIRLGLALNFSVFYYEILNNPELACTLAKTAFDEAIAELDTLNEDSYKDSTLIMQLLRDNLTLWTSDSAGEECDAAEGAEN
As for B1, the binding result was “binds”.

B2: full-length 14-3-3θ tagged with V5-His (protein, UniProt P27348 1-245)
chain: B1 chain
For B2, the binding entry was “binds”.
